Results are given in words; binding and its absence hold for the method and conditions named. In cells and extracts the contact can be indirect. A result given as binding can be weak or reduced; the word gives no strength. Blank lines part the entries; values can stand above or below the binder they belong to.
Columns and labels:
[1] = target: BEIIa (Oryza sativa subsp. indica cv. IR36 (endogenous in developing seeds)); test: co-IP; soluble proteins of developing seeds of WT (IR36) at 5 DAF incubated with isozyme-specific antibodies and protein A magnetic beads; washed with PBS pH 7.4; Western blotting
[2] = target: BEIIb (Oryza sativa subsp. indica cv. IR36 (endogenous in developing seeds)); test: as above
[3] = target: BEIIa (Oryza sativa subsp. indica cv. IR36 (endogenous in developing seeds)); test: co-IP; soluble proteins of developing seeds of WT (IR36) at 15 DAF incubated with isozyme-specific antibodies and protein A magnetic beads; washed with PBS pH 7.4; Western blotting
[4] = target: BEIIb (Oryza sativa subsp. indica cv. IR36 (endogenous in developing seeds)); test: as above
[5] = target: BEIIa (Oryza sativa subsp. indica cv. IR36 (endogenous in developing seeds)); test: co-IP; soluble proteins of developing seeds of WT (IR36) at 10 DAF incubated with isozyme-specific antibodies and protein A magnetic beads; washed with PBS pH 7.4; Western blotting
[6] = target: BEIIb (Oryza sativa subsp. indica cv. IR36 (endogenous in developing seeds)); test: as above
[7] = target: BEIIa (Oryza sativa subsp. indica cv. IR36 (endogenous in developing seeds)); test: co-IP; soluble proteins of developing seeds of the be2b mutant at 10 DAF incubated with isozyme-specific antibodies and protein A magnetic beads; washed with PBS pH 7.4; Western blotting
[8] = target: BEIIa (Oryza sativa subsp. indica cv. IR36 (endogenous in developing seeds)); test: co-IP; soluble proteins of developing seeds of the be2b mutant at 15 DAF incubated with isozyme-specific antibodies and protein A magnetic beads; washed with PBS pH 7.4; Western blotting
[9] = target: BEIIa (Oryza sativa subsp. indica cv. IR36 (endogenous in developing seeds)); test: co-IP; soluble proteins of developing seeds of the be2b mutant at 5 DAF incubated with isozyme-specific antibodies and protein A magnetic beads; washed with PBS pH 7.4; Western blotting

binding [1]: binds weakly
binding [2]: binds weakly
binding [3]: binds weakly
binding [4]: binds weakly
binding [5]: binds
binding [6]: binds
binding [7]: binds weakly
binding [8]: binds weakly
B1: BEI (enzyme, UniProt Q01401 65-820)
chain: TMVTVVEEVDHLPIYDLDPKLEEFKDHFNYRIKRYLDQKCLIEKHEGGLEEFSKGYLKFGINTVDGATIYREWAPAAQEAQLIGEFNNWNGAKHKMEKDKFGIWSIKISHVNGKPAIPHNSKVKFRFRHGGGAWVDRIPAWIRYATFDASKFGAPYDGVHWDPPACERYVFKHPRPPKPDAPRIYEAHVGMSGEEPEVSTYREFADNVLPRIRANNYNTVQLMAIMEHSYYASFGYHVTNFFAVSSRSGTPEDLKYLVDKAHSLGLRVLMDVVHSHASNNVTDGLNGYDVGQNTHESYFHTGDRGYHKLWDSRLFNYANWEVLRFLLSNLRYWMDEFMFDGFRFDGVTSMLYHHHGINKGFTGNYKEYFSLDTDVDAIVYMMLANHLMHKLLPEATIVAEDVSGMPVLCRPVDEGGVGFDFRLAMAIPDRWIDYLKNKEDRKWSMSEIVQTLTNRRYTEKCIAYAESHDQSIVGDKTIAFLLMDKEMYTGMSDLQPASPTINRGIALQKMIHFITMALGGDGYLNFMGNEFGHPEWIDFPREGNNWSYDKCRRQWSLVDTDHLRYKYMNAFDQAMNALEEEFSFLSSSKQIVSDMNEKDKVIVFERGDLVFVFNFHPNKTYKGYKVGCDLPGKYRVALDSDALVFGGHGRVGHDVDHFTSPEGMPGVPETNFNNRPNSFKVLSPPRTCVAYYRVDEDREELRRGGAVASGKIVTEYIDVEATSGETISGGWKGSEKDDCGKKGMKFVFRSSDEDCK

binding [1]: binds weakly
binding [2]: binds weakly
binding [3]: binds
binding [4]: binds
binding [5]: binds
binding [6]: binds
binding [9]: binds
B2: SSI (enzyme, UniProt A2Y9M4 114-641)
chain: SEQESEIMDVKEQAQAKVTRSVVFVTGEASPYAKSGGLGDVCGSLPIALALRGHRVMVVMPRYMNGALNKNFANAFYTEKHIKIPCFGGEHEVTFFHEYRDSVDWVFVDHPSYHRPGNLYGDNFGAFGDNQFRYTLLCYAACEAPLILELGGYIYGQKCMFVVNDWHASLVPVLLAAKYRPYGVYRDARSVLVIHNLAHQGVEPASTYPDLGLPPEWYGALEWVFPEWARRHALDKGEAVNFLKGAVVTADRIVTVSQGYSWEVTTAEGGQGLNELLSSRKSVLNGIVNGIDINDWNPSTDKFLPYHYSVDDLSGKAKCKAELQEELGLPIRPDVPLIGFIGRLDYQKGIDLIKLAIPDLMRDNIQFVMLGSGDPGFEGWMRSTESGYRDKFRGWVGFSVPVSHRITAGCDILLMPSRFEPCGLNQLYAMQYGTVPVVHGTGGLRDTVENFNPFAEKGEQGTGWAFSPLTIEKMLWALRMAISTYREHKSSWEGLMKRGMSSDFTWDHAASQYEQIFEWAFMDQPYVM
